# In PubChem BioAssay AID1671190 (National Center for Advancing Translational Sciences (NCATS), 2021):
# The chains behind the UniProt entries cited, without tags or fusion partners. Where a name states a change or a piece, a line headed by the entry shows the natural chain unless it says otherwise.
# UniProt P18054: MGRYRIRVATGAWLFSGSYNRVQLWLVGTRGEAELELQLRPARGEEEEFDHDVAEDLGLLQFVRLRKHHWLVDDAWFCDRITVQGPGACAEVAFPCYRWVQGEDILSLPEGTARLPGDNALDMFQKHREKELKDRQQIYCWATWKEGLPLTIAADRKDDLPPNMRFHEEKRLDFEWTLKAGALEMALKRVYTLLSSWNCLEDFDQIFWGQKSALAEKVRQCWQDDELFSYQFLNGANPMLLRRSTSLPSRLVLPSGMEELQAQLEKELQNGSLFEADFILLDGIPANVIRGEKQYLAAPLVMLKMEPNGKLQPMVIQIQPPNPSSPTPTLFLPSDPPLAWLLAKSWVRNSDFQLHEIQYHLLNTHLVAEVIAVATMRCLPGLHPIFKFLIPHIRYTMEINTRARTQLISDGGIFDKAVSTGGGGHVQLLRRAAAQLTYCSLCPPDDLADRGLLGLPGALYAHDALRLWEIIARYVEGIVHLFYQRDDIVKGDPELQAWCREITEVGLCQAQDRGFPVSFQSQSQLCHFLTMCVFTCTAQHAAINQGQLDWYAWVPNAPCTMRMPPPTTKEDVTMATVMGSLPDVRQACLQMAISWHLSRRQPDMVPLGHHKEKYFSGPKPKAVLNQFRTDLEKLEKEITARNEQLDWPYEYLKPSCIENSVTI
# Values joined by “and” are separate entries in the source; they are usually repeats but may differ in a detail not shown here. Equal entries are not always repeated. The campaign covered roughly 580,000 compounds. About 6,100 (1.1%) were called active. The inconclusive results got no clear call from the source; some entries with a clear call stand among them for comparison. Calls come from the whole dose curve; as a rule, active = well fitted inhibition curve with a large enough effect; inconclusive = small, poorly fitted or top-dose-only effect, or another doubt; inactive = no such curve, though single readings can be large or run the other way. Potencies of inconclusive entries are doubtful fits and often do not repeat.
# Target: Polyunsaturated fatty acid lipoxygenase ALOX12 (Homo sapiens) (UniProt P18054)
# Test: Primary qHTS assay for inhibitors of human arachidonate 12S-lipoxygenase (ALOX12): Round 2
# Conditions: purified 12hLO, xylenol orange hydroperoxide absorbance; series mostly up to 108 µM
# Summary of the method: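 Purified human 12hLO (150 nM final) in 25 mM Hepes, 0.01% Triton X-100, pH 7.0 was preincubated 15 min at room temperature with compound. Then 40 uM arachidonic acid was added, 30 min. Hydroperoxide was read by Fe-XO absorbance ratio 573/405 nm.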
# Potency is the fitted concentration of half-maximal effect.
row,SMILES,Potency
1,CCOc1ccc(NC(=O)CSC2=Nc3ccccc3C3=NC(Cc4ccccc4)C(=O)N23)cc1 (stereo not given),"inconclusive: 89.1 µM [inhibitor, partial curve, poor fit]"
2,CCCn1nc(NC(=O)c2cccc(Cl)c2)c2cc3cccc(C)c3nc21,"inconclusive: 44.7 µM [inhibitor, partial curve, poor fit]"
3,CCN(CC(=O)NC1CCS(=O)(=O)C1)S(=O)(=O)c1cc([N+](=O)[O-])ccc1C (stereo not given),"inconclusive: 56.2 µM [inhibitor, partial curve, poor fit]"
4,Nc1ccc(N=Nc2ccc(O)cc2)c(N)n1,"inconclusive: 50.1 µM [inhibitor, partial curve, poor fit]"
5,Cc1ccc(S(=O)(=O)NC(=O)C2(C)CCN2C(=O)C2(c3ccc(Cl)cc3)CC2)cc1 (stereo not given),"inconclusive: 20 µM [inhibitor, full curve, poor fit]"
6,CC1=C(C(=O)O)CC(S(=O)(=O)O)C1(C)C (stereo not given),"inconclusive: 56.2 µM [inhibitor, partial curve, poor fit]"
7,CCOCCCn1c(=NC(=O)c2cccnc2)c(C(=O)OCC)cc2c(=O)n3ccccc3nc21,"inconclusive: 44.7 µM [inhibitor, partial curve, poor fit] and inconclusive: 70.8 µM [inhibitor, partial curve, poor fit]"
8,c1ccc(Nc2ncncc2-c2ccc3c(c2)OCO3)cc1,"inconclusive: 6.31 µM [inhibitor, full curve, poor fit]"
9,NC(=O)C1CCCc2c1[nH]c1ccc(Cl)cc21 (stereo not given),inactive
10,CC1=NN(c2ccccc2)C(=O)/C1=C/C=C/c1ccccc1,inactive
11,CCCCN(CC)Cc1ccc(CNC(=S)Nc2ccc(C)cc2Cl)o1,"inconclusive: 50.1 µM [inhibitor, partial curve, poor fit]"
12,O=C(Cc1ccc2c(c1)OCO2)OCc1ccc2c(c1)OCO2,inactive
13,Cc1ccc(C(=O)c2cccc([N+](=O)[O-])c2)cc1C,inactive
14,CC(C)=CC(=O)CC1(C#N)C(N)=C(C=O)CC1(C#N)C#N (stereo not given),"inconclusive: 22.4 µM [inhibitor, partial curve, poor fit]"
15,Cc1ccc2cc(C(c3nnnn3C3CCCC3)N3CCN(c4ccc(F)cc4)CC3)c(=O)[nH]c2c1 (stereo not given),"inconclusive: 35.5 µM [inhibitor, partial curve]"
16,N#C/C(=C\c1ccc2cccnc2c1)c1nc2ccccc2[nH]1,"inconclusive: 112 µM [inhibitor, single point]"
17,C[C@@H]1CN(C(=O)NCc2ccco2)C[C@H]1c1nc(-c2ccncc2)no1,inactive
18,COCCNCCCOc1ccc(Br)cc1Cl,"inconclusive: 0.631 µM [inhibitor, full curve, poor fit]"
19,Clc1ccccc1NN(Cc1ccccn1)c1ccccc1Cl,"inconclusive: 50.1 µM [inhibitor, partial curve, poor fit]"
20,CN1/C(=C\C(=O)C[n+]2ccc3ccccc3c2)C(C)(C)c2ccccc21,inactive

row,SMILES,Potency
1,O=C(c1ccccc1Cl)N1CCCC(c2nc3c(nnn3Cc3ccccc3)c(=O)[nH]2)C1 (stereo not given),"inconclusive: 89.1 µM [inhibitor, single point]"
2,C=CCn1c(=O)c2ccccc2n2c(Sc3nnnn3-c3ccccc3)nnc12,inactive
3,Nc1cc2c(cc1[N+](=O)[O-])-c1ccccc1C2=NO,inactive
4,CCC(NC(=O)C(C)(C)C)c1ccccc1 (stereo not given),"inconclusive: 35.5 µM [inhibitor, partial curve, poor fit]"
5,CCC(NC(=O)C1CC1)C12CC3CC(CC(C3)C1)C2 (stereo not given),"inconclusive: 50.1 µM [inhibitor, single point]"
6,Cc1cc(Br)ccc1NC(=O)Cn1cnc2c1c(=O)n(C)c(=O)n2C,"inconclusive: 39.8 µM [inhibitor, partial curve, poor fit]"
7,CO[C@H]1C=CO[C@@]2(C)Oc3c(C)c(O)c4c(O)c(c(C=NN5CCN(C)CC5)c(O)c4c3C2=O)NC(=O)C(C)=CC=C[C@H](C)[C@H](O)[C@@H](C)[C@@H](O)[C@@H](C)[C@H](OC(C)=O)[C@@H]1C,"inconclusive: 56.2 µM [inhibitor, partial curve, poor fit]"
8,Cc1ccc(C)c(Nc2cc(C(=O)NCCCN(C)C3CCCCC3)c3ccccc3n2)c1,"inconclusive: 22.4 µM [inhibitor, partial curve, poor fit]"
9,Cc1ccc(N2C(=O)CS(=O)(=O)C23C(=O)N(C)c2ccccc23)cc1F (stereo not given),"inconclusive: 44.7 µM [inhibitor, single point]"
10,CCCc1nn2c(=O)cc(CSCC(=O)Nc3ccccc3)nc2s1,"inconclusive: 6.31 µM [inhibitor, full curve, poor fit]"
11,C=CCN=C1NC(c2ccc(Cl)cc2)C(C(=O)OC)=C(C)N1Cc1cccc(C(F)(F)F)c1 (stereo not given),"inconclusive: 70.8 µM [inhibitor, partial curve, poor fit]"
12,CN(C)c1cccc(Nc2nccc3[nH]c(-c4cccc(F)c4)cc23)c1,"inconclusive: 39.8 µM [inhibitor, partial curve, poor fit]"
13,C=C(C)CNC(=O)c1ccc(OC2CCN(C(=O)COC)CC2)cc1,"inconclusive: 141 µM [inhibitor, single point]"
14,O=c1[nH]c(=S)[nH]c2c1C(c1ccc(Cl)cc1)OC(CCc1ccccc1)C2 (stereo not given),"inconclusive: 44.7 µM [inhibitor, partial curve]"
15,CC(=O)NCCC(=O)Nc1nc(-c2c[nH]c3ccccc23)cs1,"inconclusive: 50.1 µM [inhibitor, partial curve, poor fit]"
16,Cc1ccc(C(=O)Nc2nnc(S(=O)(=O)N3CCN(c4ccc(F)cc4)CC3)s2)cc1,"inconclusive: 141 µM [inhibitor, partial curve, poor fit]"
17,CSCCC(NS(=O)(=O)c1ccc2c(c1)oc(=O)n2C)C(=O)Nc1cc(C)cc(C)c1 (stereo not given),inactive
18,COc1ccc(N2CC3CCC(C2)N3Cc2cccc(-c3ccc(F)cc3F)c2)cc1,"inconclusive: 31.6 µM [inhibitor, partial curve]"
19,CCN(C(=O)COC(=O)/C=C/c1cccc(Cl)c1)c1c(N)n(Cc2ccccc2)c(=O)[nH]c1=O,inactive
20,CC(C)CNC(=O)/C=C/C=C/c1ccc2c(c1)OCO2,inactive

row,SMILES,Potency
1,CC(=O)Nc1cccc(NC(=O)COC(=O)c2cc3ccccc3[nH]2)c1,"inconclusive: 50.1 µM [inhibitor, partial curve, poor fit]"
2,COc1cccc(C(=O)N(C)CC2CCN(CCc3cccc(C(F)(F)F)c3)CC2)c1,"inconclusive: 8.91 µM [inhibitor, full curve, poor fit]"
3,CC(C)CC1NC(=O)N(CC(=O)Nc2ccc(-c3ccccc3)cc2)C1=O (stereo not given),"inconclusive: 0.199 µM [inhibitor, full curve, poor fit]"
4,CCC(C)C(N)C(=O)NC(CCC(=O)OCc1ccccc1)C(N)=O (stereo not given),inactive
5,Cc1cc(C)cc(C(=O)NCc2nnc3ccc(-c4ccccc4)nn23)c1,"inconclusive: 70.8 µM [inhibitor, partial curve, poor fit]"
6,Clc1ccc(Cl)c(OCCCCN2CCCCC2)c1,"inconclusive: 1.26 µM [inhibitor, full curve, poor fit]"
7,CCc1ccccc1NC(=O)N1CCC(OC2CCN(S(C)(=O)=O)CC2)CC1,inactive
8,C[C@]12c3[nH]c4cc(-c5ccco5)ccc4c3CCN1C(=O)[C@@H](CC(=O)NCc1ccco1)C[C@@H]2C(=O)N1CCCCC1,"inconclusive: 89.1 µM [inhibitor, single point]"
9,CCN(CC)CCNc1cc(C)c(C#N)c2nc3ccccc3n12,"inconclusive: 79.4 µM [inhibitor, single point]"
10,Cc1ccc(-c2nc3sc(C(N)=O)c(N)c3c3c2CCCC3)cc1,"inconclusive: 44.7 µM [inhibitor, partial curve, poor fit]"
11,CC(C)CC(CNC(=O)c1n[nH]c(=O)c2ccccc12)N1CCOCC1 (stereo not given),inactive
12,CCOc1ccc(NC(=S)N(CCN2CCOCC2)Cc2cc3cc4c(cc3[nH]c2=O)OCCO4)cc1,"inconclusive: 50.1 µM [inhibitor, partial curve, poor fit]"
13,O=C(Nc1nnc(COc2ccc(F)cc2)s1)c1cccs1,"inconclusive: 25.1 µM [inhibitor, partial curve, poor fit]"
14,Cc1ccc2scc(N3CCCCC3)c(=O)c2c1,"inconclusive: 100 µM [inhibitor, partial curve, poor fit]"
15,CC1=C(C)CC(C(=O)N2CCCc3cc(C)ccc32)C(C(=O)O)C1 (stereo not given),inactive
16,COc1ccc(NC(=O)CN(C)C(=O)c2c(C)nn(Cc3ccc(C)cc3)c2Cl)cc1,"inconclusive: 28.2 µM [inhibitor, single point]"
17,CCCCCCNC(=O)c1cc(S(=O)(=O)N2CCc3ccccc32)ccc1F,"inconclusive: 25.1 µM [inhibitor, single point]"
18,CCOc1ccc(Nc2oc(COc3ccc(Cl)cc3)nc2C#N)cc1,"inconclusive: 28.2 µM [inhibitor, partial curve, poor fit]"
19,CC(C)C(=O)Nc1ncc(-c2cc(C(F)F)nn2-c2c(Cl)cccc2Cl)s1,"inconclusive: 10.9 µM [inhibitor, partial curve, poor fit]"
20,COC[C@H]1CCCN1[C@@H]1[C@H](O)[C@H](CO)O[C@@H]1CNS(=O)(=O)c1cccs1,"inconclusive: 15.8 µM [inhibitor, full curve]"

# Individual results from above:
# Entry for Cc1ccc2scc(N3CCCCC3)c(=O)c2c1 under Potency: inconclusive: 100 µM [inhibitor, partial curve, poor fit]
# Entry for C[C@]12c3[nH]c4cc(-c5ccco5)ccc4c3CCN1C(=O)[C@@H](CC(=O)NCc1ccco1)C[C@@H]2C(=O)N1CCCCC1 under Potency: inconclusive: 89.1 µM [inhibitor, single point]
